{"sequences": {"note": "Protein sequences, listed by entry. Tags and fused reporters are not part of them. Residues count along the entry.", "UniProt P20138, 18-259 limits assumed": "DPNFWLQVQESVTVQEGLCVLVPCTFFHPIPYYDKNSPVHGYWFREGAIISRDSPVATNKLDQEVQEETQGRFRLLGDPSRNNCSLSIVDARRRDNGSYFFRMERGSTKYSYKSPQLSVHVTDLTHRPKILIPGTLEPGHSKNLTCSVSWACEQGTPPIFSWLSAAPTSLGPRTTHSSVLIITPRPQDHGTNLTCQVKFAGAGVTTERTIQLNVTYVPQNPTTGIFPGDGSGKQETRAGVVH"}, "source": "patent US20200063100A1", "about": "(CRISPR THERAPEUTICS, published 2020)", "binders": {"B1": {"name": "anti-CD33 CAR (41BB costim.), expressed on gene-edited human T cells (other)", "chain": "EIVLTQSPGSLAVSPGERVTMSCKSSQSVFFSSSQKNYLAWYQQIPGQSPRLLIYWASTRESGVPDRFTGSGSGTDFTLTISSVQPEDLAIYYCHQYLSSRTFGQGTKLEIKGGGGGSGGGGSGGGGSQVQLQQPGAEVVKPGASVKMSCKASGYTFTSYYIHWIKQTPGQGLEWVGVIYPGNDDISYNQKFQGKATLTADKSSTTAYMQLSSLTSEDSAVYYCAREVRLRYFDVWGQGTTVTVSSSAAAFVPVFLPAKPTTTPAPRPPTPAPTIASQPLSLRPEACRPAAGGAVHTRGLDFACDIYIWAPLAGTCGVLLLSLVITLYCNHRNRKRGRKKLLYIFKQPFMRPVQTTQEEDGCSCRFPEEEEGGCELRVKFSRSADAPAYQQGQNQLYNELNLGRREEYDVLDKRRGRDPEMGGKPRRKNPQEGLYNELQKDKMAEAYSEIGMKGERRRGKGHDGLYQGLSTATKDTYDALHMQALPPR"}}, "target": "biotinylated recombinant human CD33 (human, UniProt P20138 18-259, limits assumed, biotinylated)", "experiment": "flow cytometry, CAR T cells stained with biotinylated antigen"}
{"binder": "B1", "values": [{"measurement": "binding result", "result": "binds"}]}
